Results are given in words; binding and its absence hold for the method and conditions named. Binding seen in cells or lysates may run through a third protein. Some results given as binding are weak or reduced against the parent protein; the word gives no strength.

By UniProt entry, the sequences of proteins in these tests, tags left out. Where a name states a change or a piece, a line headed by the entry shows the natural chain unless it says otherwise.
UniProt P17987: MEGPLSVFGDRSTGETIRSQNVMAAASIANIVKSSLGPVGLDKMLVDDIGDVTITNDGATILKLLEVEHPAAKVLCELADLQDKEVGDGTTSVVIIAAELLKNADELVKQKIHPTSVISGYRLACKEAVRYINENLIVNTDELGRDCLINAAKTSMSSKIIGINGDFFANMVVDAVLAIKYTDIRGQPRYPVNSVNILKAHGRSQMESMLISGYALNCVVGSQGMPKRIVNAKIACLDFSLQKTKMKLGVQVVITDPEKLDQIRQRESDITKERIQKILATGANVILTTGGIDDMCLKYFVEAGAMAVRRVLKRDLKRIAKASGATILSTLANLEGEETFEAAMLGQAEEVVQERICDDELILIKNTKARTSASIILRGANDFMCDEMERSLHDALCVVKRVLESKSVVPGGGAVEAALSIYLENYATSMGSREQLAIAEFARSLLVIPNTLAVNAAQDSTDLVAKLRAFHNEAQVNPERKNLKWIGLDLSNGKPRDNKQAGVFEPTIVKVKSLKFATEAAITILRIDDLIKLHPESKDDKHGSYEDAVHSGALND
UniProt Q8N122: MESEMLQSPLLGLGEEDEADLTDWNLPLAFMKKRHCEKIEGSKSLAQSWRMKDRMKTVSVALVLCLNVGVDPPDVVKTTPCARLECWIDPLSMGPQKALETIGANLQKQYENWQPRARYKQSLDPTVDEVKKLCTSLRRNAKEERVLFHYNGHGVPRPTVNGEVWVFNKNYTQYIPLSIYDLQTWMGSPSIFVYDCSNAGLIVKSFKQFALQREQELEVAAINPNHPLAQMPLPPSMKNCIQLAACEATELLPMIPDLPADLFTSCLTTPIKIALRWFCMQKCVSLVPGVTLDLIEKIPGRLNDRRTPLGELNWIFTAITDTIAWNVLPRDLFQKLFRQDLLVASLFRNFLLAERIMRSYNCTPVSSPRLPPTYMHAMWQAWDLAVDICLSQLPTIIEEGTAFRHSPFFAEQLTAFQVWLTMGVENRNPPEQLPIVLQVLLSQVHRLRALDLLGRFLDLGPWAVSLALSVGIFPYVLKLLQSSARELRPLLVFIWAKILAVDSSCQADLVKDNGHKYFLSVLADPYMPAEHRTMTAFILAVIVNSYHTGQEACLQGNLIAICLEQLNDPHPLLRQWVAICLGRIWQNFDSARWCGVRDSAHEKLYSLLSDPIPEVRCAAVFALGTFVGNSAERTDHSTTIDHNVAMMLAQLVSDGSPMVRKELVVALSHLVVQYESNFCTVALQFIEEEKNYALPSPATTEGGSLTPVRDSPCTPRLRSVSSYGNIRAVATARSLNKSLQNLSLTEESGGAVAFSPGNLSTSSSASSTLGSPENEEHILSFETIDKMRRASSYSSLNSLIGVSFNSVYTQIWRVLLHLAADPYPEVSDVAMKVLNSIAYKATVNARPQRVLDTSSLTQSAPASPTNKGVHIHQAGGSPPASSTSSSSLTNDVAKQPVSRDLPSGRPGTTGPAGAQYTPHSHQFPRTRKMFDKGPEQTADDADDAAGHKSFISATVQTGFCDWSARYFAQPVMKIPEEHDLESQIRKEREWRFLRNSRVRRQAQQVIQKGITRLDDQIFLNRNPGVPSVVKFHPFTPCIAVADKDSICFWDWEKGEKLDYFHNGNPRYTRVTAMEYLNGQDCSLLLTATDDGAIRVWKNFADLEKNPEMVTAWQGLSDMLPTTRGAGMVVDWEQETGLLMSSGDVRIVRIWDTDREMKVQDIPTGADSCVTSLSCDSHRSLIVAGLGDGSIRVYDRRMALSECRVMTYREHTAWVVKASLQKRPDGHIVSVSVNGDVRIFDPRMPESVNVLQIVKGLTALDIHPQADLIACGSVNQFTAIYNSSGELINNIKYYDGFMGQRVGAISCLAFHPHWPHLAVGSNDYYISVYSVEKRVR

The target of the experiment is cytosolic chaperonin containing TCP-1 (CCT), endogenous (human (endogenous in HEK-293T)) (UniProt P17987). The experiment is described as follows: co-IP; HEK-293T cells transfected with the named protein; lysis in PBS with 0.3–0.5% CHAPS; immunoprecipitation of the transfected protein (epitope tag antibody) or of endogenous CCT (CCT5), protein A/G agarose, immunoblot.
“Raptor C-terminal β-propeller (residues 1000–1335), HA-tagged (from UniProt Q8N122 1000-1335) (domain or fragment)”: the binding entry was “binds”.
In the case of “Raptor N-terminal caspase homology and armadillo repeat domains (residues 1–999), HA-tagged (from UniProt Q8N122 1-999) (domain or fragment)” it was “no binding”; in that of “regulatory associated protein of mTOR (Raptor), full length, HA-tagged (from UniProt Q8N122 1-1335)”, “binds”.

These data come from publication PMC6599039, “Structural and functional analysis of the role of the chaperonin CCT in mTOR complex assembly” (Nature Communications, 2019).
